{"source": "PubChem BioAssay AID686938 (Drosophila RNAi Screening Center, 2013)", "screen": "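Looking for CRAC channel components and the factors controlling them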 (primary screen)", "cell system": "Drosophila S2R+ cells", "reagent": "long dsRNA against Drosophila genes, about 0.25 µg dsRNA per well, roughly 10,000 cells", "time to read-out": "5 days of knock-down before the calcium assay", "treatment": "thapsigargin (SERCA pump blocker) to empty calcium stores; entry signal taken 4 min after adding it", "detection": "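Duplicate raw fluo-4 intensities per well from a plate reader, at rest and four minutes after thapsigargin emptied calcium stores; entry-to-rest ratio filled for only some wells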", "direction": "calcium entry signal: higher = stronger calcium signal after store depletion; resting calcium signal: higher = higher resting calcium signal", "units": "calcium entry signal in fluorescence units; resting calcium signal in fluorescence units", "hit rule": "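Called when the plate z-score of the entry-to-rest ratio, mean of duplicates, falls below −3; wells with low overall dye signal (Fmax z below −2) or more than five off-targets excluded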", "meaning of the calls": "active = strongly reduced calcium entry; inactive = no strong reduction", "note": "In all, the deposit lists about 23,000 reagents; shown is an unselected part of those with a known target gene and a result. Of all reagents, 75 (0.33%) were called active. 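Raw plate signals without normalisation; calls rest on plate z-scores that were not deposited; ratio present for only 364 wells.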 The numbers tell different reagents against one gene apart. Names joined by + are all predicted targets of the reagent. The record does not give: the dose of the treatment."}
{"gene": "bc10 (GeneID 38628)", "dsRNA no.": 1, "calcium entry signal, replicate 1": 3.98e7, "calcium entry signal, replicate 2": 5.55e7, "resting calcium signal, replicate 1": 1.77e7, "resting calcium signal, replicate 2": 2.34e7, "Call": "inactive"}
{"gene": "lncRNA:CR32657 (GeneID 3772397)", "dsRNA no.": 1, "calcium entry signal, replicate 1": 3.74e7, "calcium entry signal, replicate 2": 4.80e7, "resting calcium signal, replicate 1": 1.77e7, "resting calcium signal, replicate 2": 2.14e7, "Call": "inactive"}
{"gene": "Jheh3 (GeneID 37182)", "dsRNA no.": 1, "calcium entry signal, replicate 1": 2.46e7, "calcium entry signal, replicate 2": 2.05e7, "resting calcium signal, replicate 1": 1.23e7, "resting calcium signal, replicate 2": 1.08e7, "Call": "inactive"}
{"gene": "CG34386 (GeneID 5740303)", "dsRNA no.": 1, "calcium entry signal, replicate 1": 4.06e7, "calcium entry signal, replicate 2": 3.60e7, "resting calcium signal, replicate 1": 1.94e7, "resting calcium signal, replicate 2": 1.83e7, "Call": "inactive"}
{"gene": "CG34386 (GeneID 5740303)", "dsRNA no.": 2, "calcium entry signal, replicate 1": 3.93e7, "calcium entry signal, replicate 2": 3.54e7, "resting calcium signal, replicate 1": 1.70e7, "resting calcium signal, replicate 2": 1.70e7, "Call": "inactive"}
{"gene": "CG34386 (GeneID 5740303)", "dsRNA no.": 3, "calcium entry signal, replicate 1": 3.83e7, "calcium entry signal, replicate 2": 3.28e7, "resting calcium signal, replicate 1": 2.02e7, "resting calcium signal, replicate 2": 1.52e7, "Call": "inactive"}
{"gene": "lncRNA:CR43493 + l(1)G0196", "dsRNA no.": 1, "calcium entry signal, replicate 1": 3.68e7, "calcium entry signal, replicate 2": 3.88e7, "resting calcium signal, replicate 1": 1.76e7, "resting calcium signal, replicate 2": 1.77e7, "Call": "inactive"}
{"gene": "RnrS (GeneID 36280)", "dsRNA no.": 1, "calcium entry signal, replicate 1": 2.07e7, "calcium entry signal, replicate 2": 2.07e7, "resting calcium signal, replicate 1": 1.29e7, "resting calcium signal, replicate 2": 1.19e7, "Call": "inactive"}
{"gene": "Targ2 (GeneID 326246)", "dsRNA no.": 1, "calcium entry signal, replicate 1": 2.11e7, "calcium entry signal, replicate 2": 8.05e7, "resting calcium signal, replicate 1": 1.14e7, "resting calcium signal, replicate 2": 3.50e7, "Call": "inactive"}
{"gene": "Pef (GeneID 36111)", "dsRNA no.": 1, "calcium entry signal, replicate 1": 4.57e7, "calcium entry signal, replicate 2": 4.08e7, "resting calcium signal, replicate 1": 1.88e7, "resting calcium signal, replicate 2": 1.90e7, "Call": "inactive"}
{"gene": "AstC-R2 (GeneID 40019)", "dsRNA no.": 1, "calcium entry signal, replicate 1": 3.11e7, "calcium entry signal, replicate 2": 4.39e7, "resting calcium signal, replicate 1": 1.81e7, "resting calcium signal, replicate 2": 1.70e7, "Call": "inactive"}
{"gene": "Trax (GeneID 41871)", "dsRNA no.": 1, "calcium entry signal, replicate 1": 4.04e7, "calcium entry signal, replicate 2": 5.01e7, "resting calcium signal, replicate 1": 1.69e7, "resting calcium signal, replicate 2": 2.11e7, "Call": "inactive"}
{"gene": "CG14120 (GeneID 39463)", "dsRNA no.": 1, "calcium entry signal, replicate 1": 3.11e7, "calcium entry signal, replicate 2": 4.64e7, "resting calcium signal, replicate 1": 1.58e7, "resting calcium signal, replicate 2": 1.89e7, "Call": "inactive"}
{"gene": "zfh1 (GeneID 43650)", "dsRNA no.": 1, "calcium entry signal, replicate 1": 5.24e7, "calcium entry signal, replicate 2": 4.08e7, "resting calcium signal, replicate 1": 2.54e7, "resting calcium signal, replicate 2": 1.85e7, "Call": "inactive"}
{"gene": "zfh1 (GeneID 43650)", "dsRNA no.": 2, "calcium entry signal, replicate 1": 3.81e7, "calcium entry signal, replicate 2": 3.81e7, "resting calcium signal, replicate 1": 1.99e7, "resting calcium signal, replicate 2": 2.04e7, "Call": "inactive"}
{"gene": "CG43277 (GeneID 12798350)", "dsRNA no.": 1, "calcium entry signal, replicate 1": 2.08e7, "calcium entry signal, replicate 2": 3.10e7, "resting calcium signal, replicate 1": 9.41e6, "resting calcium signal, replicate 2": 1.39e7, "Call": "inactive"}
{"gene": "ORMDL (GeneID 40404)", "dsRNA no.": 1, "calcium entry signal, replicate 1": 3.12e7, "calcium entry signal, replicate 2": 5.75e7, "resting calcium signal, replicate 1": 1.51e7, "resting calcium signal, replicate 2": 2.30e7, "Call": "inactive"}
{"gene": "CG5913 (GeneID 43132)", "dsRNA no.": 1, "calcium entry signal, replicate 1": 3.27e7, "calcium entry signal, replicate 2": 5.14e7, "resting calcium signal, replicate 1": 1.71e7, "resting calcium signal, replicate 2": 2.22e7, "Call": "inactive"}
{"gene": "CG32176 (GeneID 39944)", "dsRNA no.": 1, "calcium entry signal, replicate 1": 5.69e7, "calcium entry signal, replicate 2": 7.72e7, "resting calcium signal, replicate 1": 2.37e7, "resting calcium signal, replicate 2": 2.95e7, "Call": "inactive"}
{"gene": "CG32176 (GeneID 39944)", "dsRNA no.": 2, "calcium entry signal, replicate 1": 5.28e7, "calcium entry signal, replicate 2": 6.58e7, "resting calcium signal, replicate 1": 2.20e7, "resting calcium signal, replicate 2": 2.93e7, "Call": "inactive"}
{"gene": "CG14195 (GeneID 32911)", "dsRNA no.": 1, "calcium entry signal, replicate 1": 5.14e7, "calcium entry signal, replicate 2": 6.22e7, "resting calcium signal, replicate 1": 2.55e7, "resting calcium signal, replicate 2": 2.58e7, "Call": "inactive"}
